# Reference: paper PMC12057046, “Elucidation of short linear motif-based interactions of the MIT and rhodanese domains of the ubiquitin-specific protease 8” (Biology Direct, 2025)
# Amino acid sequences for entries named in this document (tags omitted). A change or cut given only in a name is not applied to a line headed by its entry.
# UniProt P55347: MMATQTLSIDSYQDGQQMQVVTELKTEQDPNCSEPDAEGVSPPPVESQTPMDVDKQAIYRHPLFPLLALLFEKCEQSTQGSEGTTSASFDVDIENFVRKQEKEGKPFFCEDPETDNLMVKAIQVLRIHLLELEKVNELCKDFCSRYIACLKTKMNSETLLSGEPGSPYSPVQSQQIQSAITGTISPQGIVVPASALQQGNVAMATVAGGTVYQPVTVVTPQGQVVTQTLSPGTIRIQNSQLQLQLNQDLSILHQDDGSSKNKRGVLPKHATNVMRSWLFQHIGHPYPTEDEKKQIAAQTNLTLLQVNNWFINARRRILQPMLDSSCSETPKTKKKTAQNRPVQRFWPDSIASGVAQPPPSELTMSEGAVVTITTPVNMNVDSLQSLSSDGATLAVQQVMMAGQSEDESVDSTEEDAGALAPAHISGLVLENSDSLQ
# UniProt Q3V6T2: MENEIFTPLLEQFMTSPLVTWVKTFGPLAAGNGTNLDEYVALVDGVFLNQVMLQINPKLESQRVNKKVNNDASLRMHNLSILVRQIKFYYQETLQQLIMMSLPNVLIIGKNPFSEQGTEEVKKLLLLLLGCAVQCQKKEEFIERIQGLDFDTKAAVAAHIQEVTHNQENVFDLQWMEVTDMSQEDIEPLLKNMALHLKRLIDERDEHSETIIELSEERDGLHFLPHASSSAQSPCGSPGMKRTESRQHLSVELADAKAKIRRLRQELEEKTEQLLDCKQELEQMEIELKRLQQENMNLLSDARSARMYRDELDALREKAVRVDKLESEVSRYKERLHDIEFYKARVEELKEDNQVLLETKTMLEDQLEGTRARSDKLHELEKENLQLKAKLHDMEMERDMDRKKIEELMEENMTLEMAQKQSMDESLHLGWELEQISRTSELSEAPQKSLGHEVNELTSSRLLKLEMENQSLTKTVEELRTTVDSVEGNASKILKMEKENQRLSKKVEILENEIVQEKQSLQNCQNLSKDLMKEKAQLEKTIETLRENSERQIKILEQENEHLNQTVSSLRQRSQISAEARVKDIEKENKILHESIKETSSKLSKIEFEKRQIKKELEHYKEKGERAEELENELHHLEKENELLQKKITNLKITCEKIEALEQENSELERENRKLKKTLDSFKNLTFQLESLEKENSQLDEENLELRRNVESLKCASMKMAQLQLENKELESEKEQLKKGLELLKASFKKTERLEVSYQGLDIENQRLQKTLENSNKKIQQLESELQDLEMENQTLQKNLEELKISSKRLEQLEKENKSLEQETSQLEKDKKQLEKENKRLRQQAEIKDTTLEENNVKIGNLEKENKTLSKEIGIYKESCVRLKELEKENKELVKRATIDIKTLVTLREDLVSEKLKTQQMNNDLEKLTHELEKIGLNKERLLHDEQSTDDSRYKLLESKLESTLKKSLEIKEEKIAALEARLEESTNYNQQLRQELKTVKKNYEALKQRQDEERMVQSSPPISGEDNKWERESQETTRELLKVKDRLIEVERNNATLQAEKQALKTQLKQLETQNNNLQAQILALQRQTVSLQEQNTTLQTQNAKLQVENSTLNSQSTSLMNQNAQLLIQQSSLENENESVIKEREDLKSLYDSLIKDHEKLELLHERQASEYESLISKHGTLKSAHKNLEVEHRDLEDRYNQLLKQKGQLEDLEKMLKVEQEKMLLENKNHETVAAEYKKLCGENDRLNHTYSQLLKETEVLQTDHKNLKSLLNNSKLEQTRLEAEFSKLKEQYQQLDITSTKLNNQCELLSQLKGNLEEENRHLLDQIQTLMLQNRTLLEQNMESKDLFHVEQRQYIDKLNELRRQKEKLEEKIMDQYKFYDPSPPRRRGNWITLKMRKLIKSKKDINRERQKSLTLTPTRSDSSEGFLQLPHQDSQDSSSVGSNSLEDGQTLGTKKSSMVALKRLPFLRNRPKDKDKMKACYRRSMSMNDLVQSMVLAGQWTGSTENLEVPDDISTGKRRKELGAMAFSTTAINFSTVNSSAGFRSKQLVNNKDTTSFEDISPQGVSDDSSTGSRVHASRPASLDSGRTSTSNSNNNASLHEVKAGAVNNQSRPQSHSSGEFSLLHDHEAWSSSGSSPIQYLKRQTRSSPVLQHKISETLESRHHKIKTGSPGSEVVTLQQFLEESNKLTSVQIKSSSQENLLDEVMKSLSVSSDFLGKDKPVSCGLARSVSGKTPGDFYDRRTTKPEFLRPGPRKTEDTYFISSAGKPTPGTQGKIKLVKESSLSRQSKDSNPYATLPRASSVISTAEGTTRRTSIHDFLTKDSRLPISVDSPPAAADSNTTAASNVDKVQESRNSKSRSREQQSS
# No constants are given. Whether binding was seen depends on the method and setting. In cells and extracts the contact can be indirect. These calls come from enrichment with a bait or labelling near it, and not all partners need be listed. Sequences can lack the tags named with a protein.
# T1: GST-tagged USP8 MIT domain (1-142) (human) (UniProt P40818)
# T1 sequence: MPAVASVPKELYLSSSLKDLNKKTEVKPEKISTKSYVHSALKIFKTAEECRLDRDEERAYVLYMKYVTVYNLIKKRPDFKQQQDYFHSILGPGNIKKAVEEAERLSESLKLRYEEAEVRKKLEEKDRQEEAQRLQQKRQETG
# Molecular target: T1, GST-tagged USP8 MIT domain (1-142) (human)
# Test: proteomic peptide-phage display (ProP-PD) selection; 10 µg GST-tagged bait immobilised on MaxiSorp plate; M13 phage library of the human disorderome pre-cleared on GST; four rounds, PBS, 2 h at 4 °C; enriched pools read by NGS; only the target purified
row,Binder,binding
1,"YVDLDAFLLEHGLPPS [DBP 116-131 peptide, displayed on M13 phage]",binds
2,"QAIYRHPLFPLLALLF (peptide, UniProt P55347 56-71) [PKNOX1 56-71 peptide, displayed on M13 phage]",binds
3,"SQKELESYMMRAQQLL (peptide, UniProt Q8WXH0 853-868) [SYNE2 853-868 peptide, displayed on M13 phage]",binds
4,"MDDDYEAYHSLFLSLL [EFCAB12 1-16 peptide, displayed on M13 phage]",binds
5,"SEVSDIESRIAALRAA [Melanophilin 481-496 peptide, displayed on M13 phage]",binds
6,"EVEHRDLEDRYNQLLK (peptide, UniProt Q3V6T2 1192-1207) [Girdin 1192-1207 peptide, displayed on M13 phage]",binds
